Among all 31,000 sequences or so, about 1,400 (4.5%) were called active.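 How the source made its calls: active means median seed-adjusted z-score above 1 or below -1; inactive means the rest.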 Some of the results follow.
Experiment: Novel Modifiers of Survival Motor Neuron (SMN) Protein: Gene Identification via Genome-wide siRNA Screen;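 further: luminescence tracks full-length SMN protein made from the SMN2 reporter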
Conditions: HEK293T SMN2-luciferase reporter, siRNA knockdown, 72 h; actives lie on both sides
How it was run: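 Luciferase signal, proportional to full-length SMN made from an SMN2 cDNA reporter in stable HEK293T cells, was read 72 h after siRNA reverse transfection. Values were expressed as MAD scores after non-targeting-control normalization and log10 conversion; seed analysis flagged off-targets.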

| Sequence | median seed-adjusted z-score |
| --- | --- |
| GAAUACAGGCCUCAUUGAATT against ZKSCAN3 | inactive: 0 |
| GCAGUUUGCCGAGAUGUAUTT against EEF2 | inactive: -0.159 |
| CCAAAUCAGUCUGAAAGUATT against IL10RA | inactive: 0.156 |
| AAAAGAAAAGUAUCGUGUATT against CDX4 | inactive: 0.181 |
| CAGGCGUGGUAUUCAGGGATT against APRT | inactive: 0.0278 |
| GACAAUACGUCAGGAAAUATT against AREG | inactive: 0.104 |
| CCACCUUCCAAAAUAGCGATT against LIFR | inactive: 0.031 |
| GAACUAUCACUUACAGAGATT against ZNF148 | inactive: 0.307 |
| CCAACGCAAAUAAACCGAATT against NCOA6 | inactive: -0.0197 |
| GGCUCGUCGUACUCCAUCATT against PAX5 | inactive: 0.285 |
| GGAGGGUGGGUGAAUUCCATT against DNAJC4 | inactive: 0.566 |
| CCAUCUAUGUAAUUCAACATT against LRRC19 | inactive: -0.062 |
| GGAACUCUCUAAAAAGGAATT against TXNDC5 | inactive: -0.753 |
| GCUGGAUUCUGGACCAUUUTT against FOXN2 | inactive: 0.0947 |
| CCCAGGCUCUCAAAACCAATT against EPN2 | inactive: -0.00173 |
| GGAAGACCAUGACUUACCATT against SPIC | inactive: 0.379 |
| AACUGUUAGGUGUCUGAUATT against TCF15 | inactive: -0.361 |
| CGGUCCUAGUGGAACUACUTT against PCDHA10 | inactive: 0.0404 |
| CCGAGACCUUGAGACCAUATT against XPC | inactive: -0.564 |
| GGAGUUAUAUUUAGUGAUATT against ABCA10 | inactive: -0.104 |
| GCUUUGUCACAUAACGUGATT against SLC38A2 | active: -1.04 |
| GAUUUCACCUCAGUCGUUATT against MGAM | inactive: 0.312 |

Fetched one by one from the list above, 5 records:

| Sequence | median seed-adjusted z-score |
| --- | --- |
| GAACUAUCACUUACAGAGATT against ZNF148 | inactive: 0.307 |
| CAGGCGUGGUAUUCAGGGATT against APRT | inactive: 0.0278 |
| GAAUACAGGCCUCAUUGAATT against ZKSCAN3 | inactive: 0 |
| GGAGGGUGGGUGAAUUCCATT against DNAJC4 | inactive: 0.566 |
| CCAAAUCAGUCUGAAAGUATT against IL10RA | inactive: 0.156 |

Additional results.

| Sequence | median seed-adjusted z-score |
| --- | --- |
| GCCUUCACGUCUGAACAUATT against GAD2 | inactive: 0.0588 |
| GUAGUAACCUUGCAAGAUUTT against USP33 | inactive: -0.63 |
| GAACUCUCUUGUGACCUUATT against IL22RA2 | inactive: -0.147 |
| CCAAAACUGUCUACGCAAATT against GRK1 | inactive: 0.0807 |
| GGCGAUUAGGAAACAUGAATT against PRKX | inactive: 0.0341 |
| GUAAACGAGUUGUUCCAUUTT against TMPRSS11A | inactive: 0 |
| AGAUGUACGAGGAAAAGUATT against WNK4 | inactive: 0.385 |
| UGUUUUCAAUUUAAUCAGATT against G6PC2 | inactive: -0.0362 |
| ACAUCGUUACGCUACAUGATT against PCTK1 | inactive: -0.729 |
| CAGGCGAUCUGCAUACUUUTT against CSF3R | inactive: -0.491 |
| GGUUGUGAUCAGUCCAUCATT against ABHD14B | inactive: -0.175 |
| GCAGCCUAAUAUUUGAUUUTT against LCN9 | inactive: -0.897 |
| GGAGAAGAAUGAGCAACUUTT against ADAM19 | inactive: 0.0996 |
| CUGGGUCACUGGUGUUUGATT against ATF3 | inactive: -0.000485 |
| GCAUCGACCUUGCAGUCUATT against SLC25A25 | inactive: -0.668 |
| CAAAUUGAGUCACUCUUAATT against MGAT2 | inactive: -0.124 |
| CGCCUCCAGUUUUAACUCUTT against POU2F3 | active: -1.53 |
| GGAGCAGAAAUAAGCCUUATT against SCN3B | inactive: 0 |
| GGAGGGUCUGGAUACCUUUTT against KLK9 | inactive: -0.476 |
| GGCAAGUCAUGGUGCUGAATT against TESK1 | inactive: 0.384 |
| GGGUUUUUGUGGGCGGAGATT against ISYNA1 | inactive: 0 |
| GCAGAAAGAUAGAAGGAAATT against CAPN9 | inactive: 0.417 |

| Sequence | median seed-adjusted z-score |
| --- | --- |
| GUACAUUGUGGGUAUAGUATT against TMPRSS11F | inactive: -0.289 |
| CUAUAUGAAUCACUAUACATT against ZNF181 | inactive: -0.154 |
| GGUACCAGAUGGUUCUAGATT against EPHA1 | inactive: -0.092 |
| GAGAUUUGAUGAGAAGAGATT against MMP3 | inactive: 0.0592 |
| GGACCACCGCAUCUCUACATT against BIRC5 | inactive: 0.0236 |
| CCAUCGUCAGCCUCAUGUATT against PTDSS1 | inactive: -0.76 |
| GCAGUUCUGGAGGUACUUUTT against SLC25A6 | inactive: -0.928 |
| CCCUGUAUUUCAUCGAUAATT against TOP1MT | inactive: 0.159 |
| CCUCAGAUGAUAACAGUUUTT against POMGNT1 | inactive: -0.0431 |
| GGCUGCAAAAUCUCACUAATT against TLR8 | inactive: 0 |
| CCCGGCACGUCAUCAUCAATT against KCNG2 | inactive: 0 |
| GGCUGCAGUCUAUACCAUATT against SLC35A1 | inactive: 0.00794 |
| GCUCACCAGUGUCAUGUUUTT against SLC7A4 | inactive: -0.102 |
| CCAUGUAACUCUGACCAAUTT against FBXO44 | inactive: -0.45 |
| GCGUGUCCCUGGAUGUCAATT against HSPB1 | inactive: 0.693 |
| CCAGGGCAAACGCAUCAAATT against NPAS1 | inactive: -0.386 |
| GCUGCUCACUGUUUCAUGATT against PRSS36 | inactive: 0.589 |
| AGGCUGCGUUUGGACCAGATT against PAPLN | inactive: -0.186 |
| GGGAGAGUGUGCUACGAAATT against NEIL1 | inactive: -0.168 |
| CAUCCAACGACAAUCUAUATT against ATP1A2 | inactive: 0.248 |
| GCCCUAUAGCUGUGCUGAATT against ZNF473 | inactive: -0.166 |
| CCACUACUCUAGGUCCAAATT against SRCAP | inactive: -0.42 |

| Sequence | median seed-adjusted z-score |
| --- | --- |
| CCAGAGACUUAAUACAGGATT against ZNF790 | inactive: 0.245 |
| GAUGAAAUGCUGCCGCAAUTT against WFDC2 | inactive: -0.466 |
| CAAUACCACCGUAUUCUUATT against NFYA | inactive: 0.437 |
| CAGUGCUCAUUUUACAAUATT against HBP1 | inactive: -0.117 |
| CGACAGACCAGGCAGUUCATT against PDE6G | inactive: 0.0109 |
| GCAAUCCAGAGGUACGCUATT against HGF | inactive: -0.569 |
| CCACUUUCAUCGUCUUAUATT against GPR88 | inactive: 0.404 |
| GGAUGUGAAUUAUUGGACATT against HAVCR2 | inactive: 0.205 |
| GAACUUUAUUUACCGAAAATT against POLR1B | inactive: -0.434 |
| GGUUCUUGCUUACACUCUUTT against ESSPL | inactive: 0.328 |
| GGCUACACCUGCAACGUGATT against GRN | inactive: -0.767 |
| CAAGAAACAAGCGACAAAATT against HRASLS3 | inactive: 0.085 |
| GAGUAUCAGCAGAAGAUCATT against SCYL1 | inactive: 0.0409 |
| GGAUCGGCGCAAUUAAGCATT against BHLHB2 | inactive: 0 |
| GCUAUGAAUUCACCAGUAATT against CCL26 | inactive: -0.01 |
| AGACCUCCUACGACAUUAATT against BOC | inactive: -0.0192 |
| GAAAAUCGCUGCCUACUUATT against GSTM3 | inactive: -0.66 |
| GACUAUCAGUUGCUAAAUUTT against HOXB5 | inactive: 0.061 |
| AGAUUGAAAUCGACUUUGATT against BRD4 | active: 1.13 |
| GCUGGACUCUAAUCCCUUUTT against PNPO | inactive: -0.0845 |
| CCAUCUACCUGAACGUGGATT against PFKFB3 | inactive: -0.133 |
| GGAGAGACCAGUAAACCGATT against NSFL1C | inactive: -0.0899 |

| Sequence | median seed-adjusted z-score |
| --- | --- |
| GAGCGGUUCAAGACAAUAATT against RAB13 | inactive: -0.599 |
| CAAGAUGAAUUAAAGCGAUTT against CAND1 | inactive: 0.157 |
| GGAACAAGGUUAAAGCCGATT against PGK1 | inactive: -0.0196 |
| CAACUUUCAUGGGAUGAAUTT against CD33 | inactive: -0.355 |
| CAACCUACAUGUUUGCUGATT against SCARF1 | inactive: -0.324 |
| GAUGCAACGUGGAAAUCAATT against SLC10A2 | inactive: -0.219 |
| AAGUGAUCAUUUCAACCAATT against DHX33 | inactive: -0.689 |
| CGAGGUCAAAUACUAUGAATT against EPHA3 | inactive: 0 |
| CCCUGAAUAUUGCAAUGGATT against ADAM2 | inactive: -0.116 |
| GUAUCGAAUAUCUAUCUGATT against PRSS21 | inactive: -0.306 |
| UCCUGUUCCUGAUUCCCAATT against STK25 | inactive: -0.0703 |
| GAACAGAUGCAAAAUCGGATT against SCYE1 | inactive: 0.437 |
| GCAUCACCGCUUUCAUGAATT against ZFAT | inactive: -0.183 |
| GUCUUAGAAUGAGUAGCAATT against KCNMA1 | inactive: 0 |
| GGCACAAGGAGAAUACAUATT against ACSL1 | inactive: 0.264 |
| GAUCUACUCUGGGAGACAATT against ADAM15 | inactive: -0.682 |
| GAACUGACCGAGUCAGAAATT against LOC4951 | inactive: 0.0691 |
| GAUGGAACAUACAAAUUUUTT against TMED2 | inactive: 0.288 |
| CACUGACUAUUAUCAUUCATT against WHSC1L1 | inactive: -0.283 |

Some of the entries so far, with tabs.
Sequence	median seed-adjusted z-score
CAGGCGUGGUAUUCAGGGATT against APRT	inactive: 0.0278
GCUGGAUUCUGGACCAUUUTT against FOXN2	inactive: 0.0947
GAUCUACUCUGGGAGACAATT against ADAM15	inactive: -0.682

Source: PubChem BioAssay AID1347426 (Functional Genomics Laboratory (NCATS/FGL), 2020)
